Experimental data reported in patent US6822074 (dated 2004).
Square brackets hold non-standard residues; d marks the D form. * marks the point of attachment. Pbf = Cc1c(C)c(S(=O)(=O)*)c(C)c2c1OC(C)(C)C2; NMeV = CN[C@H](C(=O)O)C(C)C; Boc = CC(C)(C)OC(=O)*; OBn = c1ccc(CO*)cc1; OtBu = CC(C)(C)O*

Experiment: general procedure: solution-phase peptide synthesis; EDCI/DMAP (fragment coupling); TBTU/N-methylmorpholine (cyclisation)
[1] = late stage modification step, internal salt

Boc-D(OBn)[dF][NMeV]R(Pbf)G-OtBu gave a step yield (coupling step, internal salt) of 82%.

“Cyclo(Arg(Pbf)-Gly-Asp(OBzl)-DPhe-NMeVal)” gave a cyclisation yield (cyclisation step, internal salt) of 73.4%.

Substance Cyclo(Arg(Pbf)-Gly-Asp-DPhe-NMeVal) has a step yield [1] of 83%.

Cyclo(Arg-Gly-Asp-DPhe-NMeVal) gave a step yield [1] of 96%.

In the case of “H-Asp(OBzl)-DPhe-NMeVal-Arg(Pbf)-Gay-OHxHCOOH”, the step yield (late stage modification step, HCOOH salt) is reported as 95%.
